Assay results taken from patent US8765726B2, “Use of pyridone derivatives in the prevention or treatment of tissue or organ toxicity induced by cytotoxic agents and radiation” (Shanghai Genomics, Inc., priority 2006, dated 2014).
At least one compound was matched to its structure with a doubt left.

What was measured:
[1] = system: Bleomycin-induced lung fibrosis; assay: Bleomycin-induced lung fibrosis in mice (pathology, lung index); assay type: in vivo, C57B6 mice; settings: Bleomycin 5 mg/kg intratracheal day 1; F351 100 mg/kg/day or dexamethasone 3 mg/kg per day gavage for 28 days; day 28
[2] = system: bleomycin-induced lung fibrosis; assay: Bleomycin-induced lung fibrosis in rat: side effects of dexamethasone compared with pirfenidone; settings: Bleomycin-treated rats, dexamethasone as positive control
Description: Dexamethasone treatment was used as positive control in one study was designed to investigate the effects of pirfenidone on bleomycin-induced lung fibrosis in rat.

`C[C@@H]1C[C@H]2[C@@H]3CCC4=CC(=O)C=C[C@]4(C)[C@@]3(F)[C@@H](O)C[C@]2(C)[C@@]1(O)C(=O)CO` [dexamethasone] was tested, and the “Pathological changes of the lung (pathology examination, HE and Masson staining)” value [1] was “slight improvement” and the “Lung fibrosis by pathological examination” value [2] was “reduced lung fibrosis significantly”.
